# From the supplement of paper PMC3334620
# The full ranking holds about 33,000 sequences; the median of “E-score (-0.5 to 0.5)” is about -0.016, and the highest 2% start at about 0.3. This is one part of the list.
# Target: T1, Yer184c (UniProt P39961)
# T1 sequence: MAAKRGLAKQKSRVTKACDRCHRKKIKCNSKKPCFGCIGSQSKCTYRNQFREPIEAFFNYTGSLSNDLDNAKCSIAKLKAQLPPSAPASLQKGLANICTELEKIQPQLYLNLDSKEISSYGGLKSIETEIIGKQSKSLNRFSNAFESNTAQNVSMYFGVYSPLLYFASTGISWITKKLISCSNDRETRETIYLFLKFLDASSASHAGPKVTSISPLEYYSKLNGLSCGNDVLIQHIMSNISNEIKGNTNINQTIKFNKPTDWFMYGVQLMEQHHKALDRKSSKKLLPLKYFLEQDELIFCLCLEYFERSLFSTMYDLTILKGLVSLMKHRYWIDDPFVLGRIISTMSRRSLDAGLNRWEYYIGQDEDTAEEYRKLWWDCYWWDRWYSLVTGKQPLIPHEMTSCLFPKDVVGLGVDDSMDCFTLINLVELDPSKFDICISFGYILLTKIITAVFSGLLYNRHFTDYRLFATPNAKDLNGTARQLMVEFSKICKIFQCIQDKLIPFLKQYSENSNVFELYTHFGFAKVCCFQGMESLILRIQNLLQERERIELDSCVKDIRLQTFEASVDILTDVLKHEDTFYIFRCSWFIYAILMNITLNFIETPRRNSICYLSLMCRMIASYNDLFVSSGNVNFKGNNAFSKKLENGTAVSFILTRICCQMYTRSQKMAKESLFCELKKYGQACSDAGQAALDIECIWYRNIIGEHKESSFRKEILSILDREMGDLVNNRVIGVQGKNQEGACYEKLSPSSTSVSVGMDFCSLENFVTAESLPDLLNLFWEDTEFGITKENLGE
# Experiment: PBM E-score (8-mer binding enrichment) (E-score (-0.5 to 0.5)); higher = stronger / more preferred TF binding
# Settings: protein concentration: 100 nM; construct: GST-full length
# How it was run: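 GST-tagged yeast TFs (full-length or DNA-binding domain) were made by PURExpress in vitro transcription/translation and applied at about 100-200 nM to universal all-10-mer Agilent arrays. The arrays were made double-stranded by primer extension, on fresh or once-stripped slides. Bound protein was detected with fluorescent anti-GST, and scans were normalised with masliner. Each ungapped eight-base word, pooled with its reverse complement, received an E-score (modified Wilcoxon-Mann-Whitney statistic) from the Universal PBM Analysis Suite.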
row,Sequence,PBM E-score
1,GCACGTTA,-0.11
2,TAGAAATA,0.126
3,AGTGAACA,-0.0513
4,TGGTCGAA,-0.379
5,GATTTGTA,0.103
6,CGCTTTAG,-0.0333
7,GTTGTTGA,0.116
8,AGAATGCC,-0.00979
9,GGAACTGA,-0.0159
10,ACGGATAG,0.139
11,CAGCGTCG,0.00627
12,ACGGCCGA,0.355
13,ATGTAAGG,0.0231
14,CGCTTCTC,-0.0784
15,GACTAATA,0.172
16,CCAGAGCC,-0.108
17,GATCTATA,0.203
18,CTGGCCAC,-0.254
19,ACCTGTCC,-0.0715
20,CAAACCCG,0.0999
21,AGTTAGCC,0.0516
22,AGGGATTC,-0.114
23,CAGCATCG,-0.203
24,CGCTGGCA,-0.0581
25,CCATATGC,-0.0909

row,Sequence,PBM E-score
1,CCTATTAG,-0.0293
2,CCCCATAA,-0.173
3,GAAATGAC,0.136
4,AAGCCCTG,-0.209
5,AATTTTGC,0.131
6,AATATGCG,-0.0471
7,GCAGGACC,-0.246
8,GTTTCCGA,0.286
9,CCACTATA,0.0573
10,CCCATTCG,-0.064
11,GCCGGAGC,0.238
12,CTAAACGA,-0.037
13,CTTCTCGA,-0.103
14,AAGTGTGT,-0.0081
15,GGAAAGGA,0.132
16,GACCTAAC,0.11
17,AACGCCGG,0.317
18,ACGCGATC,-0.0152
19,ATGCCCAA,-0.0948
20,GAGACACC,-0.245
21,AGTCTGAT,-0.0584
22,CGAGGACA,-0.148
23,GCCGATGA,0.21
24,GGCTTCAC,-0.0697
25,ATCTGGTG,-0.125

row,Sequence,PBM E-score
1,CATATAGA,0.165
2,ATGTTGTA,0.116
3,AGCTGCTG,-0.0574
4,CCGTCAGA,-0.183
5,CCGCCGGC,0.442
6,CTTTCCCC,0.0391
7,ACTGAAAC,0.152
8,ACACAAAA,0.208
9,ACAGTAGT,-0.0892
10,CGTCTATA,-0.104
11,CACGACCC,-0.109
12,GCGTAGAA,0.0511
13,ACTGTGTG,-0.101
14,AACCTAGT,-0.109
15,ATTTTTAC,0.0537
16,CCGTCGAC,-0.046
17,GCTGATAC,-0.0555
18,CCCCAGGA,-0.372
19,AATGACCG,0.14
20,GTGGTAGA,-0.235
21,AATGCGCG,0.2
22,ACACGCCT,-0.212
23,CTCGCGCA,-0.0306
24,ATCTGCTA,-0.0945
25,ACGTTGAC,-0.108

row,Sequence,PBM E-score
1,AGAAGCTA,0.1
2,CAAGGCGG,-0.164
3,ATACCCAA,0.11
4,AATGGCAC,-0.154
5,GCAGGTAA,0.0939
6,GTCCCCAA,-0.157
7,ACGAAAGC,0.0461
8,ATGAACCG,0.0237
9,ACCTTAAG,0.0419
10,CCCCGAAA,0.128
11,AATCGTCG,-0.084
12,TAATCACA,-0.0395
13,ACCGGTGG,-0.0724
14,CCACAGAC,-0.0884
15,GGACTCAC,-0.201
16,CGACCCCC,-0.357
17,GAGGTCAC,-0.0933
18,GCACTTCC,-0.208
19,ATTCCCAC,-0.171
20,GCAATCAC,0.0563
21,AATGAGGC,-0.0821
22,TAGGCAAA,-0.0609
23,AAAGGCGG,-0.00978
24,AATAGGTC,-0.0248
25,ACCGATTA,0.209

row,Sequence,PBM E-score
1,CCTCCGAA,0.0955
2,GAACAGGC,-0.0621
3,AAACCACT,-0.00821
4,GCCCGGAC,0.192
5,AATAGCGA,0.107
6,CTGATTGA,-0.0646
7,ACTCGCTA,-0.049
8,AATACCTG,-0.189
9,TATCAAGA,0.0046
10,AACGCTTG,-0.121
11,ACCTGATC,-0.227
12,TGTATAAA,0.0524
13,AAACCCTC,-0.135
14,ACAGAACC,-0.0975
15,TACTATAA,0.153
16,CAGCAACC,-0.0589
17,ACCCATAT,0.0462
18,GTTTACGA,-0.116
19,AACGATGA,0.0704
20,CCGCTCCG,0.228
21,CAGGCGCG,-0.0832
22,ACTCGGAG,0.184
23,CGAGAGCG,-0.168
24,ACATTTAA,0.187
25,ATGTACGC,-0.248

# Nothing new here: an excerpt of the list.
row,Sequence,PBM E-score
18,ACGCGATC,-0.0152
19,ATGCCCAA,-0.0948
20,GAGACACC,-0.245
21,AGTCTGAT,-0.0584
22,CGAGGACA,-0.148
23,GCCGATGA,0.21
24,GGCTTCAC,-0.0697
25,ATCTGGTG,-0.125
1,CATATAGA,0.165
2,ATGTTGTA,0.116
3,AGCTGCTG,-0.0574
4,CCGTCAGA,-0.183
5,CCGCCGGC,0.442
6,CTTTCCCC,0.0391
7,ACTGAAAC,0.152
8,ACACAAAA,0.208
9,ACAGTAGT,-0.0892
10,CGTCTATA,-0.104
11,CACGACCC,-0.109
12,GCGTAGAA,0.0511
13,ACTGTGTG,-0.101
14,AACCTAGT,-0.109
15,ATTTTTAC,0.0537
16,CCGTCGAC,-0.046
17,GCTGATAC,-0.0555
18,CCCCAGGA,-0.372
19,AATGACCG,0.14
20,GTGGTAGA,-0.235
21,AATGCGCG,0.2
22,ACACGCCT,-0.212
23,CTCGCGCA,-0.0306
24,ATCTGCTA,-0.0945
25,ACGTTGAC,-0.108
1,AGAAGCTA,0.1
2,CAAGGCGG,-0.164
3,ATACCCAA,0.11
4,AATGGCAC,-0.154
5,GCAGGTAA,0.0939
6,GTCCCCAA,-0.157
7,ACGAAAGC,0.0461

# Next part.

row,Sequence,PBM E-score
1,GCCCGCAC,-0.0678
2,ACGATATG,0.0984
3,GCACGGTA,-0.0237
4,CTGACTCC,-0.253
5,CTCTTAAC,0.0497
6,ACGAGAAC,-0.0476
7,ACTGATCG,-0.103
8,GCCTGGGA,-0.0696
9,AAACTACA,0.159
10,ACGGCAGA,0.122
11,CATCGAAC,-0.0705
12,ATCATGTG,-0.0738
13,AACTTAGT,0.102
14,GGCTCCCC,-0.217
15,ATAATGCG,-0.0333
16,CGGGATAC,0.139
17,AGTTCCTA,0.0989
18,CTCCCAGA,-0.191
19,GCCATGGC,-0.179
20,ACAGAAGC,0.0633
21,AGCACCCA,-0.213
22,ATACGAAC,0.125
23,GAGGGGGA,-0.326
24,CGCACGAC,-0.122
25,ATTGCACA,-0.00033

row,Sequence,PBM E-score
1,CGGGGAGC,-0.0385
2,GAGAAGTA,0.0279
3,CGTCACAG,-0.168
4,ACGCACAC,0.0231
5,AGTGTGAT,0.0863
6,ATAAGCGA,0.158
7,CCTGTACC,-0.18
8,AATGAGAA,0.121
9,CCGACAAC,0.13
10,AGTCGAAT,-0.0811
11,ACCCACCT,-0.363
12,AACCGTTC,0.168
13,AGGTGGGC,-0.3
14,CCTGTCAC,-0.0568
15,TATAACAA,0.274
16,ATTTCGTC,-0.0283
17,GTGAAGTA,0.00432
18,CCCGAGGG,0.111
19,GAACAGGA,0.0359
20,ATGTCTAA,0.061
21,AGTGATAC,-0.00601
22,CAAGTTGC,-0.0601
23,CCTCCACA,-0.209
24,GTGCCTTA,-0.0564
25,AGTACCTC,-0.17

row,Sequence,PBM E-score
1,GTTTAACA,0.0617
2,CAAACGCC,0.0277
3,ACGTTAGA,0.0206
4,CAGACGAC,-0.334
5,AAGTCACA,0.0291
6,CGCCGTTA,0.102
7,GGTTCCCA,-0.19
8,GGAATGAC,0.099
9,ATTGGAGC,0.0215
10,AAATCAGT,0.191
11,GTCACGAC,-0.051
12,ATAACCAC,-0.197
13,CCCAACAG,-0.181
14,ACTCTTAG,-0.155
15,GATCTCCA,-0.113
16,ATCCGCCA,0.0237
17,GATATCGA,-0.0301
18,GAACCAAC,-0.0522
19,ACGTTCAT,-0.236
20,AAGAATCT,0.00106
21,GACACCCA,-0.151
22,GGGCCAGA,-0.108
23,GGCTTCCC,-0.121
24,AGGTCGAT,0.108
25,GATACGAC,-0.0684

row,Sequence,PBM E-score
1,AAGCCTCA,-0.184
2,TCTCCTAA,-0.122
3,GGTTCCAA,0.195
4,ACAACTAG,-0.0858
5,AACAGCGC,-0.0852
6,TACTTCGA,0.236
7,ACGTAAAC,-0.198
8,AAACCGTC,0.176
9,AATGCTAT,0.0422
10,GGGCTAGA,-0.183
11,ACTCCTCC,-0.108
12,TCGAAAAA,0.169
13,AGGCATGA,-0.224
14,ACCGACTA,-0.0743
15,AGCTGCAA,-0.112
16,CGATTTGA,-0.0198
17,GACCCCGA,-0.023
18,GGGTGGAC,-0.13
19,GAACTCCC,0.173
